Values from PubChem BioAssay AID1259254 (NCATS, 2017).

- Assay: 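Genome-wide screen for genes that prevent DNA re-replication in cancer cells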 (primary screen)
- Cells: human HCT116 colorectal cancer cells
- Reagents: single siRNA against human genes
- Timing: 3 days
- Detection: 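Imaged Hoechst DNA stain sorts each cell into a cycle phase by DNA amount; per plate, G2 fraction set to 0% for non-targeting and 100% for GMNN siRNA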
- Scale: G2 robust z-score and G2 cells, % of GMNN control: higher = more G2 cells, more excess DNA replication; raw share of cells in G2: higher = larger share of cells with G2 DNA content
- Rule for the call: 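Active siRNAs have a G2 robust z of 5 or more median absolute deviations over the median, which in these data means about 38% or higher of GMNN control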
Here is an unselected part of about 59,000 deposited reagents. Of all reagents, about 1,550 (2.6%) were called active. 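G2 share is only a proxy for re-replication; each gene was hit by three separate siRNAs, and active genes were retested.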 The raw values are shown without normalisation. The numbers tell different reagents against one gene apart. Not given: the amount of reagent.

| gene | reagent | G2 robust z-score | G2 cells, % of GMNN control | raw share of cells in G2 (%) | Call |
| --- | --- | --- | --- | --- | --- |
| ABCA6 (ATP binding cassette subfamily A member 6) | 1 | -0.276 | 1.02 | 4.22 | inactive |
| ABCA6 (ATP binding cassette subfamily A member 6) | 2 | -0.351 | 0.498 | 4.32 | inactive |
| ABCA6 (ATP binding cassette subfamily A member 6) | 3 | 0.996 | 9.97 | 10.4 | inactive |
| ZNF121 (zinc finger protein 121) | 1 | -0.518 | -0.68 | 3.3 | inactive |
| ZNF121 (zinc finger protein 121) | 2 | -1.66 | -8.7 | 2.11 | inactive |
| ZNF121 (zinc finger protein 121) | 3 | 0.872 | 9.11 | 7.15 | inactive |
| SLC16A2 | 1 | -1.03 | -4.28 | 4.24 | inactive |
| SLC16A2 | 2 | -1.64 | -8.58 | 1.61 | inactive |
| SLC16A2 | 3 | -0.651 | -1.61 | 3.42 | inactive |
| GABARAPL1 (GABA type A receptor associated protein like 1) | 1 | 4.12 | 32 | 14.8 | inactive |
| GABARAPL1 (GABA type A receptor associated protein like 1) | 2 | 1.94 | 16.6 | 13.7 | inactive |
| GABARAPL1 (GABA type A receptor associated protein like 1) | 3 | -0.164 | 1.82 | 4.58 | inactive |
| CFAP69 (cilia and flagella associated protein 69) | 1 | -0.691 | -1.89 | 3.66 | inactive |
| CFAP69 (cilia and flagella associated protein 69) | 2 | 0.181 | 4.24 | 6.16 | inactive |
| CFAP69 (cilia and flagella associated protein 69) | 3 | -0.0204 | 2.82 | 3.15 | inactive |
| DIAPH2 (diaphanous related formin 2) | 1 | -0.695 | -1.92 | 3.43 | inactive |
| DIAPH2 (diaphanous related formin 2) | 2 | 0.0599 | 3.39 | 6.17 | inactive |
| DIAPH2 (diaphanous related formin 2) | 3 | -0.554 | -0.932 | 4.65 | inactive |

The list goes on (2 carried over from the part before).
| gene | reagent | G2 robust z-score | G2 cells, % of GMNN control | raw share of cells in G2 (%) | Call |
| --- | --- | --- | --- | --- | --- |
| DIAPH2 (diaphanous related formin 2) | 2 | 0.0599 | 3.39 | 6.17 | inactive |
| DIAPH2 (diaphanous related formin 2) | 3 | -0.554 | -0.932 | 4.65 | inactive |
| CCDC136 (coiled-coil domain containing 136) | 1 | 5.73 | 43.3 | 23.4 | active |
| CCDC136 (coiled-coil domain containing 136) | 2 | 0.664 | 7.64 | 8.03 | inactive |
| CCDC136 (coiled-coil domain containing 136) | 3 | -0.0325 | 2.74 | 3.42 | inactive |
| RNF6 (ring finger protein 6) | 1 | -0.818 | -2.79 | 3.79 | inactive |
| RNF6 (ring finger protein 6) | 2 | -0.676 | -1.79 | 3.51 | inactive |
| RNF6 (ring finger protein 6) | 3 | -0.343 | 0.552 | 3.55 | inactive |
| SLC22A3 | 1 | 0.122 | 3.83 | 5.22 | inactive |
| SLC22A3 | 2 | -0.855 | -3.05 | 4.66 | inactive |
| SLC22A3 | 3 | -1.4 | -6.87 | 2.19 | inactive |
| TTC16 (tetratricopeptide repeat domain 16) | 1 | -0.0874 | 2.35 | 5.69 | inactive |
| TTC16 (tetratricopeptide repeat domain 16) | 2 | 3.65 | 28.6 | 19.6 | inactive |
| TTC16 (tetratricopeptide repeat domain 16) | 3 | -0.327 | 0.667 | 4.95 | inactive |
